Measured data: PubChem BioAssay AID504764 (Drosophila RNAi Screening Center, 2011)

Assay: 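Knock-downs that raise or lower a Notch target reporter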 (primary screen)
System: Drosophila Kc167 cells
Reagent: long dsRNA against Drosophila genes
Duration: about 5 days (4 days dsRNA, then 24 h after transfection)
Treatment: transfection of constitutively active membrane-tethered Notch lacking the extracellular domain, read 24 h later
Detection: 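Firefly luciferase from an E(spl)m3 reporter with active Notch, plus control-promoter and uninduced reporter wells for normalisation; unnormalised counts, duplicate wells a and b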
Scale: induced reporter light, run 1, well a and induced reporter light, run 1, well b: higher = more light from the Notch target reporter with active Notch; control promoter light, run 1, well a and control promoter light, run 1, well b: higher = more light from the viral control promoter (cell number, transfection, viability); uninduced reporter light, run 1, well a: higher = more light from the Notch target reporter without active Notch
Call rule: 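Hit if the duplicate-averaged log2 ratio of induced to control-promoter light gives a plate-wise z beyond ±2, or induced to uninduced beyond ±1.8; weak-control or discordant-duplicate wells dropped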
Meaning of the calls: active = modifier hit (raised or lowered Notch signal); inactive = not a hit
In all, the deposit lists about 22,000 reagents; below is a random part of those with a known target gene and a result. Of all reagents, 403 (1.9%) were called active. 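Unnormalised raw counts per well; ratio z-scores behind the hit calls and whether each hit raises or lowers signal are not deposited.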 A plus sign joins genes that one reagent is predicted to hit. The record does not give: the amount of reagent.

Target gene	DRSC id	induced reporter light, run 1, well a	induced reporter light, run 1, well b	control promoter light, run 1, well a	control promoter light, run 1, well b	uninduced reporter light, run 1, well a	Outcome
MagR (Magnetic receptor)	DRSC20092	73960	69120	79770	77500	10585	inactive
Tim13	DRSC09848	1.55e5	1.20e5	1.86e5	1.82e5	8210	inactive
Rcd5 (Reduction in Cnn dots 5)	DRSC08180	1.78e5	1.45e5	1.11e5	34265	13600	inactive
SmD1 (Small ribonucleoprotein particle protein SmD1)	DRSC09800	79815	1.07e5	1.32e5	92695	3360	inactive
IntS1 (Integrator 1)	DRSC04343	1.83e5	1.42e5	83080	75715	24195	active
Ran-like	DRSC10918	1.47e5	1.26e5	1.00e5	1.05e5	10685	inactive
Fbp1 (Fat body protein 1)	DRSC11166	1.40e5	1.50e5	1.47e5	99120	6885	active
CG30375	DRSC06834	1.80e5	1.51e5	1.63e5	1.75e5	12950	inactive
CG18557	DRSC00524	1.51e5	1.02e5	1.09e5	85045	8850	inactive
CG14567	DRSC11728	1.10e5	1.14e5	1.39e5	1.13e5	7605	inactive
CG42795	DRSC12772	2.08e5	1.92e5	1.83e5	2.65e5	13560	inactive
CG42795	DRSC15533	1.12e5	85800	89605	66335	6528	inactive
mh (maternal haploid)	DRSC20168	92445	76490	87130	90485	9690	inactive
RapGAP1 (Rap GTPase activating protein 1)	DRSC02293	1.82e5	1.76e5	2.39e5	2.23e5	10880	inactive
RapGAP1 (Rap GTPase activating protein 1)	DRSC02294	1.42e5	1.56e5	2.13e5	1.69e5	10970	inactive
RapGAP1 (Rap GTPase activating protein 1)	DRSC03406	1.84e5	1.70e5	1.76e5	1.82e5	18175	inactive
PH4alphaSG2 (prolyl-4-hydroxylase-alpha SG2)	DRSC15037	1.61e5	1.67e5	2.18e5	2.34e5	16245	inactive
CG6283	DRSC16009	1.08e5	1.06e5	1.45e5	1.35e5	9478	inactive
Gr93c (Gustatory receptor 93c)	DRSC14587	1.72e5	1.47e5	1.80e5	1.78e5	10405	inactive
RpS13 (Ribosomal protein S13)	DRSC03419	25035	26500	25060	32150	1488	inactive
Osi8 (Osiris 8)	DRSC12277	86905	85335	1.12e5	80175	5105	inactive

Called active, of those listed so far:
Target gene	DRSC id	induced reporter light, run 1, well a	induced reporter light, run 1, well b	control promoter light, run 1, well a	control promoter light, run 1, well b	uninduced reporter light, run 1, well a	Outcome
IntS1 (Integrator 1)	DRSC04343	1.83e5	1.42e5	83080	75715	24195	active
Fbp1 (Fat body protein 1)	DRSC11166	1.40e5	1.50e5	1.47e5	99120	6885	active

More entries follow:
Target gene	DRSC id	induced reporter light, run 1, well a	induced reporter light, run 1, well b	control promoter light, run 1, well a	control promoter light, run 1, well b	uninduced reporter light, run 1, well a	Outcome
RpS28b (Ribosomal protein S28b)	DRSC18258	27340	31760	32905	32240	1865	inactive
Adck1 (aarF domain containing kinase 1)	DRSC04394	1.55e5	1.63e5	1.62e5	1.53e5	14478	inactive
CG34269	DRSC07884	1.91e5	2.19e5	2.28e5	2.35e5	16315	inactive
CG30466	DRSC05556	1.69e5	1.81e5	2.25e5	2.65e5	17682	inactive
dj (don juan)	DRSC12625	72685	96265	1.05e5	61735	5740	inactive
CG2975	DRSC00556	1.07e5	1.10e5	1.02e5	68535	10245	inactive
MTPAP (mitochondrial poly(A) polymerase)	DRSC18585	1.38e5	1.26e5	1.74e5	1.98e5	9105	inactive
CG31683 + CG18858	DRSC02703	39380	40200	37240	35440	2750	inactive
Kank	DRSC05513	2.42e5	2.20e5	2.93e5	2.33e5	17035	inactive
Kank	DRSC05933	1.80e5	1.83e5	1.47e5	1.62e5	12135	inactive
Exo84 (Exocyst 84)	DRSC15965	1.12e5	1.46e5	1.78e5	1.91e5	10690	inactive
stmA (stambha A)	DRSC05120	50010	78150	85385	1.04e5	3120	inactive
stmA (stambha A)	DRSC07593	1.21e5	89365	85495	84900	7842	inactive
Snr1 (Snf5-related 1)	DRSC12369	1.13e5	95570	1.13e5	95330	16580	inactive
Syx18 (Syntaxin 18)	DRSC14628	1.81e5	2.04e5	2.03e5	1.98e5	16735	inactive
CG10909	DRSC14282	6455	8225	10592	8530	515	inactive
Tsp42Ea (Tetraspanin 42Ea)	DRSC04982	2.06e5	1.86e5	2.28e5	2.16e5	15480	inactive
Tsp42Ea (Tetraspanin 42Ea)	DRSC06792	1.94e5	2.04e5	2.63e5	2.27e5	15205	inactive
PGAP2 (Post-GPI attachment to proteins 2)	DRSC00632	1.20e5	1.16e5	1.15e5	1.26e5	9390	inactive
ND-B14.5AL (NADH dehydrogenase (ubiquinone) B14.5 A subunit-like)	DRSC11795	1.43e5	1.03e5	1.25e5	1.12e5	11770	inactive
COX7AL2 (Cytochrome c oxidase subunit 7A-like 2)	DRSC00099	1.35e5	1.09e5	1.48e5	1.58e5	8765	inactive
spag4 (sperm-associated antigen 4)	DRSC02973	1.49e5	1.92e5	73360	1.00e5	20890	inactive
Cap-H2 (Chromosome associated protein H2)	DRSC14908	1.38e5	1.36e5	1.24e5	1.03e5	10960	inactive
Rpt2 (Regulatory particle triple-A ATPase 2)	DRSC16799	4615	4985	4065	6700	355	inactive
Acp62F (Accessory gland protein 62F)	DRSC08136	1.42e5	1.87e5	2.78e5	1.97e5	9110	inactive
Vha100-1 (Vacuolar H[+] ATPase 100kD subunit 1)	DRSC14148	2.13e5	2.16e5	1.67e5	1.83e5	11390	active
shep (alan shepard)	DRSC08748	6735	7170	7260	6185	4605	inactive
shep (alan shepard)	DRSC09765	3.01e5	1.81e5	3.07e5	2.63e5	12228	inactive
shep (alan shepard)	DRSC09771	1.26e5	1.24e5	90605	45345	12110	inactive
